Our source for the binding values is paper PMC9830517.

Sequences of proteins named here, by UniProt entry; tags and fusion partners are left off. Residues count along the entry.
UniProt O60603: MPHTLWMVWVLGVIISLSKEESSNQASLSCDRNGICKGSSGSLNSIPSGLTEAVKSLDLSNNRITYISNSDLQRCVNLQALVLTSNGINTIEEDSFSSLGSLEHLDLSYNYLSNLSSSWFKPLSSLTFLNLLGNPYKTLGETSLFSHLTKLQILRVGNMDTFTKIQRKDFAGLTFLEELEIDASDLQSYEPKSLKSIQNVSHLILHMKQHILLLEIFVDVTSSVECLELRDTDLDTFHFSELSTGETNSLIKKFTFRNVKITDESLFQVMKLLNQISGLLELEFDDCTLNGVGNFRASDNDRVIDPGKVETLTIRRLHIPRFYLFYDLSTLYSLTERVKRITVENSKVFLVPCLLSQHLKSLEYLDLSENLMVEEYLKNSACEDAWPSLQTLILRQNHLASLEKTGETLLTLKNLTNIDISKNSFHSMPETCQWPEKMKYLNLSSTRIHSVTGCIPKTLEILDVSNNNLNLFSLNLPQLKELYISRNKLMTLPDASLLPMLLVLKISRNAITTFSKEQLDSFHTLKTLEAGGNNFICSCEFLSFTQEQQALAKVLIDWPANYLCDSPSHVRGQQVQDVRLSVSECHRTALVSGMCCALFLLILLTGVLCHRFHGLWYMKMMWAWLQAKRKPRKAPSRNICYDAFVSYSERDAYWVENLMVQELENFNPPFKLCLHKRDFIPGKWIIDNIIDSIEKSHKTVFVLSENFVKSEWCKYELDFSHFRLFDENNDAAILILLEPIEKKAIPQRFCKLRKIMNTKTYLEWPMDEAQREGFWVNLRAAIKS
UniProt O00206, residues 24-839: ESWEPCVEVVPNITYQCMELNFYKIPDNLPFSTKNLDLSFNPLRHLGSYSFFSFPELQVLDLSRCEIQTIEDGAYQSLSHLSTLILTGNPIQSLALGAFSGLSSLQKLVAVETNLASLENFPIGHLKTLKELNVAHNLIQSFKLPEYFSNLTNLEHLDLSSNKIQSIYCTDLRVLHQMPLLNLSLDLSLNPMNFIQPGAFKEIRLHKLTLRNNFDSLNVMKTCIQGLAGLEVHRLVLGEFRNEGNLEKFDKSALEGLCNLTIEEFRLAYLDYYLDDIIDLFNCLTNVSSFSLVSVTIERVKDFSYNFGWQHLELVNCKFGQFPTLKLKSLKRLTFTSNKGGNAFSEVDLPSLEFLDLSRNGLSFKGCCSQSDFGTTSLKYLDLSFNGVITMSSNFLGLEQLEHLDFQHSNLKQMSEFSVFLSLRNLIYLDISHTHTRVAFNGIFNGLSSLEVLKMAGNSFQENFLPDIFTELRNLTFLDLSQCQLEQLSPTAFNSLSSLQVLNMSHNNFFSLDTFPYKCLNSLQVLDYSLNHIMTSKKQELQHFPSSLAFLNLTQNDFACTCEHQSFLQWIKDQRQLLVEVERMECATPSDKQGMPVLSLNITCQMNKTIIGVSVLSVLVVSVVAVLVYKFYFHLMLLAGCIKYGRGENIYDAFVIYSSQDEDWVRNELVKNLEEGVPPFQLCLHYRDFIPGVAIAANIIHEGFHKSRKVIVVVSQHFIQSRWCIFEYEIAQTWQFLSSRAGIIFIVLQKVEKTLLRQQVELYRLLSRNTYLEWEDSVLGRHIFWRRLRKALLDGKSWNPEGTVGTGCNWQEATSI

Assay [1] deals with toll like receptor 2 (TLR2) (human (endogenous in HMrSV5)) (UniProt O60603). Description: co-IP; lysate of HMrSV5 after co-culture with Oe-BGN AGS for 96h; supernatant incubated with anti-BGN antibody, IgG, TLR2 antibody or TLR4 antibody overnight at 4 °C; Protein A/G agarose beads 12h at 4 °C; western blot. On the technique in general: A western blot detects proteins with antibodies after separation by electrophoresis.

The target of assay [2] is toll like receptor 4 (TLR4) (human (endogenous in HMrSV5)) (UniProt O00206). The description is as above.

Results are given in words; binding and its absence hold for the method and conditions named. In cells and extracts the contact can be indirect. Some binding calls cover weakened binding; strength is not graded here.

B1: biglycan (BGN) (ligand, UniProt P21810 38-368)
chain: DEEASGADTSGVLDPDSVTPTYSAMCPFGCHCHLRVVQCSDLGLKSVPKEISPDTTLLDLQNNDISELRKDDFKGLQHLYALVLVNNKISKIHEKAFSPLRKLQKLYISKNHLVEIPPNLPSSLVELRIHDNRIRKVPKGVFSGLRNMNCIEMGGNPLENSGFEPGAFDGLKLNYLRISEAKLTGIPKDLPETLNELHLDHNKIQAIELEDLLRYSKLYRLGLGHNQIRMIENGSLSFLPTLRELHLDNNKLARVPSGLPDLKLLQVVYLHSNNITKVGVNDFCPMGFGVKRAYYNGISLFNNPVPYWEVQPATFRCVTDRLAIQFGNYKK
As for B1, the binding entry in assay [1] and in assay [2] was “binds” in each case.
